Assay results as given in PMC9598788.
No constants are given. Whether binding was seen depends on the method and setting. In cells and extracts the contact can be indirect. A yes stands for co-enrichment or nearness to the bait. Other partners may have been found.

Sequences of proteins named here, by UniProt entry; tags and fusion partners are left off. A change or cut given only in a name is not applied to a line headed by its entry.
UniProt O22229: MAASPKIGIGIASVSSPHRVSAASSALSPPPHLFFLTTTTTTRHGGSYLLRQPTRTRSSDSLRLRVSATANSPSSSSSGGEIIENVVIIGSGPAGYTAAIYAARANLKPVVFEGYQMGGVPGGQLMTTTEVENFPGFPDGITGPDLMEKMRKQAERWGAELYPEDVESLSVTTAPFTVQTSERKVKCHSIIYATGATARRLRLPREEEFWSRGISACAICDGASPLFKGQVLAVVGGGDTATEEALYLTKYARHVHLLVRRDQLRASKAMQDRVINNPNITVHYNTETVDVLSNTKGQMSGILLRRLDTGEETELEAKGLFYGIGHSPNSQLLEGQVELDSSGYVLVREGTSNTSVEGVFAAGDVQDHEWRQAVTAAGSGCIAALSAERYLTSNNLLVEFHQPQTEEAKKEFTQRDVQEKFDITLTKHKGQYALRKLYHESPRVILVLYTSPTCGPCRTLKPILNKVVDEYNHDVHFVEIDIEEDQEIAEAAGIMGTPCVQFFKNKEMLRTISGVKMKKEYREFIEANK

Target: NTRC-C457S (Arabidopsis thaliana (from the prefix At)) (UniProt O22229)
Experiment: affinity purification with mass spectrometry; His-tagged monocysteinic Trx mutant overexpressed in N. benthamiana leaves (agroinfiltration, 5 days); leaf extract (20 mM sodium phosphate pH 7.4, 150 mM NaCl, 25 mM imidazole, 0.1% Triton X-100) on Ni-NTA agarose; washed with 45 mM imidazole; targets held by a mixed disulfide eluted with 20 mM DTT; LC-MS/MS; hits with Log2(fold change) > 1.8 against empty-vector plants

binding: binds
Substance: Chlorophyll a-b binding protein (Q0PWS7) (from UniProt Q0PWS7)
